Which two values form the index is not stated here.
System: HCMV

Compound	Selectivity Index
CCCCCCCCCCCCCCCCCCOCCCOP1(=O)COC(Cn2ccc(N)nc2=O)CO1 (stereo not shown) [1-O-octadecylpropanediol-3-cCDV]	1 x 10^6
CCCCCCCCCCCCCCCCCCOCCCOP(=O)(O)CO[C@H](CO)Cn1ccc(N)nc1=O [1-O-octadecylpropanediol-3-CDV]	1 x 10^6
CCCCCCCCCCCCCCCCOP1(=O)COC(Cn2ccc(N)nc2=O)CO1 (stereo not shown) [Hexadecyl-cCDV]	163
CCCCCCCCCCCCCCCCCCOCCOP1(=O)COC(Cn2ccc(N)nc2=O)CO1 (stereo not shown) [1-O-octadecylethanediol-2-cCDV]	1 x 10^6

Source: patent publication EP1914237B1 (priority 1999, dated 2001)
